Results reported in article PMC12650144, “Interactive Role of the DHPR β1a SH3 Domain in Skeletal Muscle Excitation–Contraction Coupling” (Biomolecules, 2025).
No constants are given. Whether binding was seen depends on the method and setting.

The chains behind the UniProt entries cited, without tags or fusion partners. Residues count along the entry.
UniProt Q8CC27: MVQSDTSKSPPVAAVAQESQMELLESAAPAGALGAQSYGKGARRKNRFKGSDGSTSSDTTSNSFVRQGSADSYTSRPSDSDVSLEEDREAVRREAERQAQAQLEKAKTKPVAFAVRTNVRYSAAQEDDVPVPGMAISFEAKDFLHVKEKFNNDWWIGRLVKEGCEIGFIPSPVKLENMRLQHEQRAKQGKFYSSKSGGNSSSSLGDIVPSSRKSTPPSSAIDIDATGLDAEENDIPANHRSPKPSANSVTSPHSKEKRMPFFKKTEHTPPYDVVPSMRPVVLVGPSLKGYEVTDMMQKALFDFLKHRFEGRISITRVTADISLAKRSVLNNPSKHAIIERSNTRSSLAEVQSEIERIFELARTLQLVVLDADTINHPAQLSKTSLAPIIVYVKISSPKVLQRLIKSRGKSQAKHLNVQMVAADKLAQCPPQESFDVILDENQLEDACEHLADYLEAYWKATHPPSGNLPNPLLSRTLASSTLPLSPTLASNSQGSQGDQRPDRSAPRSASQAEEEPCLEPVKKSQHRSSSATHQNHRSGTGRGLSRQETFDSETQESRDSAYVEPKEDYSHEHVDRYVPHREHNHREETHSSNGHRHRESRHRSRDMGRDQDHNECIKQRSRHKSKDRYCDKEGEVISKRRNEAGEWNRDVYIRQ
UniProt P07293, residues 720-765: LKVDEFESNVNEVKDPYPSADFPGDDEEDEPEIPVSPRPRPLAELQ

Molecular target: DHPR β2a subunit, full length (mouse) (UniProt Q8CC27)
Experiment: other fluorescence titration; tryptophan fluorescence quenching: intrinsic fluorescence of the β subunit or β1a-SH3 domain in the cuvette (sub-micromolar; 50 nM β1a-FL for the AID titration) monitored while titrating the II-III loop or peptides; excitation 280 nm, emission 340 nm; corrected for dilution and intrinsic fluorescence of the titrant; nonlinear regression; both purified

binding: no binding
Substance: α1s II–III loop C region peptide (residues 720–765) (from UniProt P07293 720-765)
